# PubChem BioAssay AID1159578 – Peter MacCallum Cancer Centre | 2015
# Test: 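Genome-wide hunt for genes controlling movement of lymphatic endothelial cells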 (primary screen)
# Cells: human lymphatic endothelial cells
# Reagent: siRNA pool against human genes, 40 nM
# Timing: 48 h after transfection
# Measurement: 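Cells stained with dye and imaged after a scratch; covered wound area and nuclei counted, duplicates averaged, migration set against mock wells and turned into a robust z-score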
# Direction: migration robust z-score: higher = faster migration into the scratch; migration relative to mock: higher = more scratch area covered than mock; nuclei per well: higher = more cells in the well
# Call rule: 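Pools averaging fewer than 3300 nuclei are never called; remaining pools count as changed when migration robust z lies outside -2 to 2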
# Meaning of the calls: active = migration changed; inactive = no migration change, or too few cells
# In all, the deposit lists about 18,000 reagents; shown is a random part of them. In the full data, about 1,030 (5.7%) were called active. 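Inactive calls also include pools with fewer than 3300 nuclei, whose migration was not assessed.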 Raw values vary from plate to plate and are shown uncorrected.
target,migration robust z-score,migration class with cell-count check,migration relative to mock,"nuclei per well, duplicate mean",call
TLDC2 (TBC/LysM-associated domain containing 2),0.05,migration z between -2 and 2; enough cells,0.9,5778,inactive
CRYZL1 (crystallin zeta like 1),0.88,migration z between -2 and 2; enough cells,0.98,6308,inactive
OTX2 (orthodenticle homeobox 2),-0.58,migration z between -2 and 2; enough cells,0.74,6906,inactive
ELMOD2 (ELMO domain containing 2),-0.41,migration z between -2 and 2; enough cells,0.78,5970,inactive
CIMIP4 (ciliary microtubule inner protein 4),0.11,migration z between -2 and 2; enough cells,0.92,7123,inactive
ZNF786 (zinc finger protein 786),1.01,migration z between -2 and 2; enough cells,1.15,5185,inactive
"PCYT2 (phosphate cytidylyltransferase 2, ethanolamine)",-0.15,migration z between -2 and 2; enough cells,0.77,5962,inactive
TRIM50 (tripartite motif containing 50),-0.16,migration z between -2 and 2; enough cells,0.78,6110,inactive
TRIM44 (TRIM family member 44),0.1,migration z between -2 and 2; enough cells,0.91,3856,inactive
SIAH2 (siah E3 ubiquitin protein ligase 2),1.4,migration z between -2 and 2; enough cells,1.08,4608,inactive
"GGT2P (gamma-glutamyltransferase 2, pseudogene)",0.18,migration z between -2 and 2; enough cells,0.84,5895,inactive
PKD1L2 (polycystin 1 like 2 (gene/pseudogene)),-0.1,migration z between -2 and 2; enough cells,0.78,5311,inactive
DAZ4 (deleted in azoospermia 4),-0.68,migration z between -2 and 2; enough cells,0.7,5624,inactive
CABP4 (calcium binding protein 4),1.91,migration z between -2 and 2; enough cells,1.38,5604,inactive
TTLL3 (tubulin tyrosine ligase like 3),-3.01,migration z below -2; enough cells,0.22,5011,active
SHISA3 (shisa family member 3),1.75,migration z between -2 and 2; enough cells,1.34,5507,inactive
PHOX2A (paired like homeobox 2A),1.15,migration z between -2 and 2; enough cells,1.02,6134,inactive
PRM3 (protamine 3),0,migration z between -2 and 2; enough cells,0.89,6262,inactive
GLIPR1L1 (GLIPR1 like 1),0.11,migration z between -2 and 2; enough cells,0.91,5676,inactive
AADACL4 (arylacetamide deacetylase like 4),-1.14,migration z between -2 and 2; enough cells,0.59,5740,inactive
ZNF683 (zinc finger protein 683),-2.98,migration z below -2; enough cells,0.11,5856,active
TATDN3 (TatD DNase domain containing 3),0.59,migration z between -2 and 2; enough cells,1.04,5664,inactive
CFAP68 (cilia and flagella associated protein 68),-0.28,migration z between -2 and 2; enough cells,0.82,5783,inactive
GDPD5 (glycerophosphodiester phosphodiesterase domain containing 5),2.34,migration z above 2; enough cells,1.49,7014,active
MANF (mesencephalic astrocyte derived neurotrophic factor),-0.53,migration z between -2 and 2; enough cells,0.75,5836,inactive
GALNT5 (polypeptide N-acetylgalactosaminyltransferase 5),0.24,migration z between -2 and 2; enough cells,0.85,5408,inactive
ATOSB (atos homolog B),1.08,migration z between -2 and 2; enough cells,1.17,6262,inactive
ECSIT (ECSIT signaling integrator),-1.15,migration z between -2 and 2; enough cells,0.59,6382,inactive
GLG1 (golgi glycoprotein 1),-0.28,migration z between -2 and 2; enough cells,0.82,5925,inactive

The list goes on (7 carried over from the part before).
target,migration robust z-score,migration class with cell-count check,migration relative to mock,"nuclei per well, duplicate mean",call
CFAP68 (cilia and flagella associated protein 68),-0.28,migration z between -2 and 2; enough cells,0.82,5783,inactive
GDPD5 (glycerophosphodiester phosphodiesterase domain containing 5),2.34,migration z above 2; enough cells,1.49,7014,active
MANF (mesencephalic astrocyte derived neurotrophic factor),-0.53,migration z between -2 and 2; enough cells,0.75,5836,inactive
GALNT5 (polypeptide N-acetylgalactosaminyltransferase 5),0.24,migration z between -2 and 2; enough cells,0.85,5408,inactive
ATOSB (atos homolog B),1.08,migration z between -2 and 2; enough cells,1.17,6262,inactive
ECSIT (ECSIT signaling integrator),-1.15,migration z between -2 and 2; enough cells,0.59,6382,inactive
GLG1 (golgi glycoprotein 1),-0.28,migration z between -2 and 2; enough cells,0.82,5925,inactive
HDHD5 (haloacid dehalogenase like hydrolase domain containing 5),2.9,migration z above 2; enough cells,1.64,5614,active
TAS2R16 (taste 2 receptor member 16),0.19,migration z between -2 and 2; enough cells,0.93,6050,inactive
C2orf15 (chromosome 2 open reading frame 15),-1.27,migration z between -2 and 2; enough cells,0.56,4194,inactive
CHN1 (chimerin 1),0.19,migration z between -2 and 2; enough cells,0.93,6535,inactive
ZSWIM8 (zinc finger SWIM-type containing 8),0.58,migration z between -2 and 2; enough cells,1.04,6462,inactive
PDIA6 (protein disulfide isomerase family A member 6),-0.44,migration z between -2 and 2; enough cells,0.72,6436,inactive
KHDC3L,-0.75,migration z between -2 and 2; enough cells,0.69,5536,inactive
UNC5D (unc-5 netrin receptor D),-0.3,migration z between -2 and 2; enough cells,0.82,6515,inactive
FSHR (follicle stimulating hormone receptor),0.68,migration z between -2 and 2; enough cells,0.94,6716,inactive
ADCY8 (adenylate cyclase 8),0.44,migration z between -2 and 2; enough cells,1,5924,inactive
TSSK1B (testis specific serine kinase 1B),0.16,migration z between -2 and 2; enough cells,0.84,4558,inactive
ZEB2 (zinc finger E-box binding homeobox 2),-0.8,migration z between -2 and 2; enough cells,0.65,3342,inactive
TUBB6 (tubulin beta 6 class V),0.34,migration z between -2 and 2; enough cells,0.87,6438,inactive
NFE2L1 (NFE2 like bZIP transcription factor 1),0.55,migration z between -2 and 2; enough cells,0.91,5282,inactive
XRCC2 (X-ray repair cross complementing 2),-0.28,migration z between -2 and 2; enough cells,0.75,5952,inactive
"CTNS (cystinosin, lysosomal cystine transporter)",0.64,migration z between -2 and 2; enough cells,0.93,7440,inactive
DIP2B (DIP2 acetate--CoA ligase B (putative)),0.54,migration z between -2 and 2; enough cells,1.02,5674,inactive
TBX15 (T-box transcription factor 15),-0.1,migration z between -2 and 2; enough cells,0.86,6134,inactive
PRTN3 (proteinase 3),-2.57,under 3300 nuclei; migration not judged,0.31,2204,inactive
AHCTF1 (AT-hook containing transcription factor 1),-0.21,migration z between -2 and 2; enough cells,0.76,6408,inactive
ZSCAN4 (zinc finger and SCAN domain containing 4),-0.96,migration z between -2 and 2; enough cells,0.64,5521,inactive
"NSF (N-ethylmaleimide sensitive factor, vesicle fusing ATPase)",0.52,migration z between -2 and 2; enough cells,0.9,5580,inactive
KCTD8 (potassium channel tetramerization domain containing 8),1.68,migration z between -2 and 2; enough cells,1.32,5838,inactive
SBNO2 (strawberry notch homolog 2),-0.62,migration z between -2 and 2; enough cells,0.72,6439,inactive
BCAS3 (BCAS3 microtubule associated cell migration factor),0.68,migration z between -2 and 2; enough cells,1.06,6090,inactive
BNIP5 (BCL2 interacting protein 5),-0.56,migration z between -2 and 2; enough cells,0.74,6412,inactive
LIN37 (lin-37 DREAM MuvB core complex component),-0.65,migration z between -2 and 2; enough cells,0.72,5027,inactive
TGM6 (transglutaminase 6),-1.54,migration z between -2 and 2; enough cells,0.48,7880,inactive
LMO4 (LIM domain only 4),1.17,migration z between -2 and 2; enough cells,1.03,5170,inactive
PF4 (platelet factor 4),0.57,migration z between -2 and 2; enough cells,1.04,4986,inactive
OR6A2 (olfactory receptor family 6 subfamily A member 2),-0.7,migration z between -2 and 2; enough cells,0.7,5487,inactive
OR5K4 (olfactory receptor family 5 subfamily K member 4),-0.12,migration z between -2 and 2; enough cells,0.86,6064,inactive
KIF25 (kinesin family member 25),-0.83,migration z between -2 and 2; enough cells,0.64,5357,inactive
GSDMD (gasdermin D),-1.44,migration z between -2 and 2; enough cells,0.51,5922,inactive
BEST1 (bestrophin 1),-1.12,migration z between -2 and 2; enough cells,0.6,5390,inactive
CD9 (CD9 molecule),0.15,migration z between -2 and 2; enough cells,0.92,5677,inactive
RBM4 (RNA binding motif protein 4),0.84,migration z between -2 and 2; enough cells,1.1,5800,inactive
MOB3A (MOB kinase activator 3A),-3.51,migration z below -2; enough cells,-0.03,4477,active
SYT12 (synaptotagmin 12),1,migration z between -2 and 2; enough cells,1.15,5968,inactive
CYP26C1 (cytochrome P450 family 26 subfamily C member 1),-1.84,migration z between -2 and 2; enough cells,0.41,5094,inactive
AREG (amphiregulin),-0.9,migration z between -2 and 2; enough cells,0.63,4414,inactive
ARG2 (arginase 2),0.32,migration z between -2 and 2; enough cells,0.97,6330,inactive
NEDD1 (NEDD1 gamma-tubulin ring complex targeting factor),-0.55,migration z between -2 and 2; enough cells,0.75,4928,inactive
OR13H1 (olfactory receptor family 13 subfamily H member 1),-0.88,migration z between -2 and 2; enough cells,0.66,6066,inactive
